Source: PubChem BioAssay AID1224828 (NIAID, 2016)
The deposit covers about 17,000 reagents; shown is an unselected part. 762 of them (4.5%) were called active. 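Active calls include both raised and lowered p65 entry, mostly lowered; wells with fewer than 50 cells lack a z-score.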 The raw values are shown without normalisation.

Purpose: 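Knock-downs that increase or decrease LPS-induced p65 nuclear translocation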 (primary screen)
System: mouse RAW264.7 G9 macrophage reporter cells (GFP-p65, Tnf promoter-mCherry)
Reagents: siRNA pool against mouse genes, 100 nM
Duration: 2 days siRNA transfection, then 40 min LPS before fixation
Treatment: LPS (Salmonella minnesota R595) at 10 ng/ml
Measurement: 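Imaged p65 nuclear translocation ratio, normalised to the plate median, converted to robust z-scores and averaged across two replicates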
Scale: p65 translocation robust z-score: higher = more nuclear NF-kappaB p65 after LPS than the plate median; nuclear/cytoplasmic p65 ratio: higher = more nuclear NF-kappaB p65
Active means: 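Called active when z exceeds 3.3 or falls under -1.56 (median of Tlr4 controls), giving activity score of at least 50; no calls for control wells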
Meaning of the calls: active = hit (p65 shift raised or lowered); inactive = no clear change

gene | p65 translocation robust z-score | nuclear/cytoplasmic p65 ratio, rep 1 | nuclear/cytoplasmic p65 ratio, rep 2 | low cell count flag | Outcome
Smarca4 | 0.33 | 1.56 | 1.64 | enough cells to score | inactive
Hmgxb3 | -2.02 | 1.19 | 1.25 | enough cells to score | active
Chst9 | 0.6 | 1.73 | 1.84 | enough cells to score | inactive
Tmprss5 | – | 1.41 | 1.51 | fewer than 50 cells per well; well left out of scoring | inactive
Mzt2 | 1.25 | 1.57 | 1.63 | enough cells to score | inactive
Socs6 | 0.13 | 1.38 | 1.3 | enough cells to score | inactive
Med12l | 3.18 | 1.77 | 2.04 | enough cells to score | inactive
Gltpd2 | 1.32 | 1.74 | 2.05 | enough cells to score | inactive
Mms19 | 1.09 | 1.8 | 1.89 | enough cells to score | inactive
Ca3 | 0.05 | 1.53 | 1.87 | enough cells to score | inactive
Tsga10 | 1.2 | 1.55 | 1.36 | enough cells to score | inactive
Clic4 | -0.42 | 1.47 | 1.27 | enough cells to score | inactive
Stx19 | 2.97 | 1.85 | 1.85 | enough cells to score | inactive
Hoxc4 | 1.62 | 1.67 | 1.57 | enough cells to score | inactive
Ank1 | 1.87 | 1.97 | 1.83 | enough cells to score | inactive
Serpina3k | – | 1.47 | 1.29 | fewer than 50 cells per well; well left out of scoring | inactive
Fbxw13 | -0.27 | 1.45 | 1.31 | enough cells to score | inactive
Or1e22 | -2.25 | 1.35 | 1.06 | enough cells to score | active
Styk1 | 1.25 | 1.93 | 1.51 | enough cells to score | inactive
Nt5c | 1.77 | 2.06 | 1.72 | enough cells to score | inactive
Tmem97 | -1.49 | 1.29 | 1.14 | enough cells to score | inactive
Or52h1 | 0.95 | 1.58 | 1.37 | enough cells to score | inactive
Gpr87 | 0.46 | 1.57 | 1.79 | enough cells to score | inactive
Cnksr1 | -0.38 | 1.66 | 1.31 | enough cells to score | inactive
Fam171b | 0.7 | 1.65 | 1.56 | enough cells to score | inactive
Peli3 | -0.22 | 1.33 | 1.35 | enough cells to score | inactive
Snx19 | 0.05 | 1.48 | 1.19 | enough cells to score | inactive
A530095I07Rik | – | 1.32 | 1.73 | fewer than 50 cells per well; well left out of scoring | inactive
Nrcam | 0.83 | 1.77 | 1.71 | enough cells to score | inactive
Fuca1 | 0.3 | 1.46 | 1.42 | enough cells to score | inactive
Rap2b | -0.01 | 1.46 | 1.57 | enough cells to score | inactive
E130113K22RIK | 1.41 | 1.65 | 1.54 | enough cells to score | inactive
Coa3 | -0.15 | 1.54 | 1.77 | enough cells to score | inactive
Ofd1 | -1.11 | 1.27 | 1.3 | enough cells to score | inactive
4921522P10Rik | – | 0 | 1.29 | fewer than 50 cells per well; well left out of scoring | inactive
Tspo | 1.12 | 1.78 | 1.78 | enough cells to score | inactive
Ift52 | -1.44 | 1.23 | 1.33 | enough cells to score | inactive
Or56b1 | 1.76 | 1.37 | 1.47 | enough cells to score | inactive
Pkig | -0.85 | 1.38 | 1.3 | enough cells to score | inactive
Stau2 | 0.6 | 1.52 | 1.28 | enough cells to score | inactive
